Data as given in PubChem BioAssay AID652259 (Drosophila RNAi Screening Center, 2013)
Screen: 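Knock-downs that push a Wingless-driven reporter up or down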 (primary screen). Cell system: Drosophila clone 8 imaginal disc epithelial cells. Reagent: long dsRNA against Drosophila genes. Challenge: pathway stimulated by co-transfected Wingless expression plasmid. Measured: 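Firefly luciferase from a tcf-site Wingless reporter, measured alongside co-transfected Renilla luciferase that tracks transfection; pathway stimulated by a Wingless plasmid; the firefly-to-Renilla ratio is not deposited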. Scale: firefly reporter light: higher = more Wg reporter light, before normalisation; Renilla control light: higher = more transfected or surviving cells. Hit rule: 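Strong candidates differ from their plate mean by at least two out of four per-plate statistical tests; weak candidates meet just one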. Calls: active = candidate regulator (raises or lowers reporter); inactive = not a candidate.
The screen tested about 22,000 reagents; below is a random part of those with a known target gene and a result. Of all reagents, 233 (1.1%) were called active. 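Light values are raw, unnormalised plate reads; the ratio scores behind the reporter calls were not deposited.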 A plus sign joins genes that one reagent is predicted to hit. The record does not give: the amount of reagent, the time to read-out, the dose of the treatment.

| gene knocked down | amplicon | reporter change call, replicate 1 | firefly reporter light, replicate 1 | firefly reporter light, replicate 2 | Renilla control light, replicate 1 | Renilla control light, replicate 2 | outcome |
| --- | --- | --- | --- | --- | --- | --- | --- |
| CG17234 | DRSC00490 | – | 2029 | 5651 | 774 | 2330 | inactive |
| CG13280 | DRSC02253 | – | 2224 | 6545 | 994 | 2329 | inactive |
| Ns2 (Nucleostemin 2) | DRSC06993 | – | 19313 | – | 5904 | – | inactive |
| Delta | DRSC16648 | – | 11521 | – | 1875 | – | inactive |
| Hr39 (Hormone receptor-like in 39) | DRSC03346 | – | 6308 | – | 1783 | – | inactive |
| Est-P (Esterase P) | DRSC11163 | – | 6020 | – | 1803 | – | inactive |
| Pi3K68D (Phosphatidylinositol 3-kinase 68D) | DRSC11253 | – | 5281 | – | 1781 | – | inactive |
| CG2157 | DRSC19836 | – | 15076 | – | 6953 | – | inactive |
| CG3437 | DRSC10366 | – | 6340 | – | 2214 | – | inactive |
| jhamt (juvenile hormone acid methyltransferase) | DRSC01985 | – | 1736 | 5712 | 978 | 2752 | inactive |
| CG30047 | DRSC05340 | – | 15641 | – | 11863 | – | inactive |
| LysD + LysC (retired record) | DRSC08674 | – | 4816 | – | 1985 | – | inactive |
| LysD + LysC (retired record) | DRSC22743 | – | 7.23e5 | 7.73e5 | 1.78e5 | 1.21e5 | inactive |
| Spx (Spliceosomal protein on the X) | DRSC18720 | – | 16000 | – | 6472 | – | inactive |
| CG15200 | DRSC19647 | – | 16872 | – | 9061 | – | inactive |
| scny (scrawny) | DRSC10509 | – | 2595 | – | 1344 | – | inactive |
| scny (scrawny) | DRSC10510 | – | 1757 | 7589 | 689 | 1061 | inactive |
| CG32750 | DRSC18848 | – | 14375 | – | 8341 | – | inactive |
| ValRS (Valyl-tRNA synthetase) | DRSC06864 | – | 7370 | – | 2873 | – | inactive |
| Nepl16 (Neprilysin-like 16) | DRSC14650 | – | 17547 | – | 13749 | – | inactive |
| Mo25 | DRSC11224 | – | 4388 | – | 1547 | – | inactive |
| CG10514 | DRSC14249 | – | 29185 | – | 18313 | – | inactive |
| CG13887 | DRSC08357 | – | 15744 | – | 4242 | – | inactive |
| Nup62 (Nucleoporin 62kD) | DRSC06970 | – | 24486 | – | 4137 | – | inactive |
| CG32066 | DRSC10652 | – | 6599 | – | 2855 | – | inactive |
| CG32066 | DRSC10653 | – | 4610 | – | 2165 | – | inactive |
| Send1 (Spermathecal endopeptidase 1) | DRSC00482 | – | 2522 | 3610 | 1122 | 1878 | inactive |
| CG14459 | DRSC11719 | Wg reporter activity raised | 14304 | – | 1349 | – | active |
| Mal-B2 (Maltase B2) | DRSC02417 | – | 4432 | – | 1312 | – | inactive |

Hits, of those listed so far:
| gene knocked down | amplicon | reporter change call, replicate 1 | firefly reporter light, replicate 1 | firefly reporter light, replicate 2 | Renilla control light, replicate 1 | Renilla control light, replicate 2 | outcome |
| --- | --- | --- | --- | --- | --- | --- | --- |
| CG14459 | DRSC11719 | Wg reporter activity raised | 14304 | – | 1349 | – | active |
